Reference: PubChem BioAssay AID1347075 (National Center for Advancing Translational Sciences (NCATS), 2019)
Screen size: about 400,000 compounds; about 5,500 (1.4%) were called active. The shares of active, inactive and inconclusive entries below differ from those in the screen. Calls follow the shape of the dose curve; as a rule, active = well fitted cell-killing curve with a large enough effect; inconclusive = small, poorly fitted or top-dose-only effect, or effect the other way; inactive = flat fitted curve, though single readings scatter. A potency beside an inconclusive call is a rough fit, not a confirmed value.

experiment: qHTS assay for MDR1-selective chemotherapeutics: Primary screen using the parental adenocarcinoma cell KB-3-1; settings: KB-3-1 viability, CellTiter-Glo ATP luminescence, 72 h; activity change, negative = cytotoxic: at 46.1 µM (top of the series); also: nearly all actives have a fitted effect of over 60% in size
Outline: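 72 h, 37 °C compound treatment of KB-3-1 parental cells; CellTiter-Glo added, 10 min, luminescence read. Data corrected against DMSO-only plates and normalized before curve fitting.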
% is scaled to controls: 0 for no effect and ±100 for the full control effect; potency is read from the fitted curve at half-maximal effect.

Row | SMILES | Potency | activity change, negative = cytotoxic
1 | O=C(OCc1ccccc1)c1ccc(NCc2cc(O)ccc2O)cc1 | active: 3.66 µM | –
2 | CCc1ccc2nc(N(CCCN(C)C)C(=O)c3ccc(C(=O)c4ccccc4)cc3)sc2c1 | active: 23.1 µM | –
3 | CN(Cc1ccc(OC(F)F)cc1)C(=O)c1cccc(S(=O)(=O)N2CCN(Cc3ccccc3)CC2)c1 | active: 14.6 µM | –
4 | CCn1c(SCC(=O)N2CCCCCC2)nc2c([nH]c3ccccc32)c1=O | inconclusive: 0.291 µM [rising, full curve, poor fit] | –
5 | CCOc1ccccc1-c1c2cc(O)c(=O)cc-2oc2cc(O)c(O)cc12 | inconclusive: 29.1 µM [cytotoxic, single point] | –
6 | O=C(CC(SCc1ccco1)c1ccc(O)cc1)c1cccs1 (configuration not stated) | active: 20.6 µM | –
7 | Cc1nc2sc3c(c2c(=N)n1N)CC(C)(C)OC3 | inconclusive: 29.1 µM [cytotoxic, single point] | –
8 | CC(=O)Nc1ccc(C(=O)OCC(=O)NCc2ccccc2)cc1 | inconclusive: 16.4 µM [cytotoxic, single point] | –
9 | CC1=C(c2ccc(C)c(C)c2)S(=O)(=O)N=C1N1CCC(C(=O)NCc2ccc(C)o2)CC1 | inactive | –
10 | O=C(/C=C/c1ccc(Cl)cc1)Nc1cc(S(=O)(=O)N2CCOCC2)ccc1N1CCOCC1 | inconclusive: 29.1 µM [cytotoxic, single point] | –
11 | Cc1ccc(C)c(NC(=O)CN(C)C(=O)CN2C(=O)C3CCCCC3C2=O)c1 (configuration not stated) | inactive | –
12 | CCOc1ccc(-c2nc(C#N)c(NCCCOC)o2)cc1 | inactive | –
13 | CC1CC1C(=O)Nc1nc(-c2ccccn2)cs1 (configuration not stated) | inconclusive: 25.9 µM [cytotoxic, single point] | –
14 | CCN(Cc1cc2cc(C)ccc2[nH]c1=O)S(=O)(=O)c1ccccc1 | inconclusive: 18.4 µM [cytotoxic, single point] | –
15 | COc1nc(Cc2ccc(Cl)cc2)nc2ccccc12 | inactive | –
16 | CCN(CC)S(=O)(=O)c1cc(NC(=O)C(C)OC(=O)c2[nH]c(C)c(C(C)=O)c2C)ccc1C (configuration not stated) | inconclusive: 23.1 µM [cytotoxic, single point] | –
17 | CCN(C(=O)CSc1nnc2ccccn12)c1c(N)n(Cc2ccccc2)c(=O)[nH]c1=O | inactive | –
18 | CNC(=S)N/N=C/c1cn(Cc2ccc(C)cc2)c2ccccc12 | inconclusive: 20.6 µM [cytotoxic, single point] | –
19 | Cc1c(C)n(CCCN(C)C)c2ncnc(NCc3ccccc3)c12 | inactive | –
20 | CCN(C(=O)c1oc2ccc(S(=O)(=O)N3CCCCCC3)cc2c1C)c1ccccc1 | active: 25.9 µM | –
21 | C[C@@H]1CN([C@@H](C)CO)C(=O)c2cc(Br)cnc2O[C@H]1CN(C)Cc1cccnc1 | – | inconclusive: 45.9%
22 | CCC(=O)N[C@@H]1CC[C@@H](CCNC(=O)Nc2ccc(F)cc2)O[C@@H]1CO | inactive | –
23 | Cn1c2c(c(=O)[nH]c1=O)C(c1cccc(O)c1)C1=C(N2)c2ccccc2C1=O (configuration not stated) | active: 16.4 µM | –
24 | CCN1C(=O)c2cccc3c(S(=O)(=O)Nc4nc(C)cs4)ccc1c23 | inconclusive: 29.1 µM [cytotoxic, single point] | –

Pulled by structure from the entries so far, three records:
Row | SMILES | Potency | activity change, negative = cytotoxic
12 | CCOc1ccc(-c2nc(C#N)c(NCCCOC)o2)cc1 | inactive | –
3 | CN(Cc1ccc(OC(F)F)cc1)C(=O)c1cccc(S(=O)(=O)N2CCN(Cc3ccccc3)CC2)c1 | active: 14.6 µM | –
22 | CCC(=O)N[C@@H]1CC[C@@H](CCNC(=O)Nc2ccc(F)cc2)O[C@@H]1CO | inactive | –

(next part)

Row | SMILES | Potency | activity change, negative = cytotoxic
25 | Cc1ccc(-n2ncc(C(=O)NCCN3CCc4ccccc4C3)c2C2CCN(C(=O)OC(C)(C)C)CC2)cc1 | inconclusive: 20.6 µM [cytotoxic, single point] | –
26 | O=C(Nc1ccccc1)N1CCSc2cc(Cl)ccc21 | inactive | –
27 | CN(C(=O)c1cccc(NC(=O)Cc2cccc(NC(=O)C3CCCN(C(=O)CCc4ccccc4)C3)c2)c1)C1CCC1 (configuration not stated) | inconclusive: 29.1 µM [cytotoxic, single point] | –
28 | CC(C)N1C(=O)/C(=C\c2nc3ccccc3c(=O)[nH]2)c2ccccc21 | active: 18.4 µM | –
29 | COc1cccc(/C=N/NC(=O)CNC(=O)CCc2ccccc2)c1O | inactive | –
30 | C[C@H](NC(=O)c1nc[nH]c1C(=O)N(C)CCO)c1ccccc1 | inactive | –
31 | CCOC(=O)c1sc(NC(=O)c2sccc2C)cc1C | inconclusive: 29.1 µM [cytotoxic, single point] | –
32 | CSc1ccccc1C(=O)N1CCC(n2nccc2NC(=O)C(C)(C)C)CC1 | inactive | –
33 | Cc1cccc(NC(=S)NC2CC3C=CC2C3)c1 (configuration not stated) | inactive | –
34 | Cc1nn(C)c(C)c1S(=O)(=O)NC1CCCC1 | inactive | –
35 | CCN(CC)c1ccc(N=Cc2c(C)[nH]c3ccccc23)cc1 | inactive | –
36 | CCN(CC)S(=O)(=O)c1ccc(Cl)c(C(=O)OC)c1 | inconclusive: 16.4 µM [cytotoxic, single point] | –
37 | COc1cc(C2CC(=O)c3c([nH]c(C(=O)OC4CCCCC4)c3C)C2)cc(OC)c1OC (configuration not stated) | inconclusive: 2.91 µM [cytotoxic, partial curve, poor fit] | –
38 | Cc1ccc(C(=O)Nc2ccc3c(c2)OCO3)cc1NC(=O)c1ccco1 | inactive | –
39 | Cc1ccccc1NC1=NCC(c2ccc([N+](=O)[O-])cc2)S1 (configuration not stated) | inconclusive: 18.4 µM [cytotoxic, single point] | –
40 | C[n+]1ccccc1N1CCN(c2ccccc2Cl)CC1 | active: 20.6 µM | –
41 | CC(=O)Nc1ccc(-c2ccnc3c2CC(C(=O)NCC2CC2)O3)cc1 (configuration not stated) | inconclusive: 20.6 µM [cytotoxic, single point] | –
42 | CCNc1ccc(C(=O)NN=C2CCCC2)cc1[N+](=O)[O-] | inconclusive: 18.4 µM [rising, partial curve, poor fit] | –
43 | COc1cccc(/C=N/NC(=O)CSc2ccccc2C)c1O | inconclusive: 29.1 µM [cytotoxic, single point] | –
44 | Cc1cc(C)cc(N(CC(=O)NC(C)(C)C)C(=O)CCC(=O)Nc2ccccn2)c1 | inactive | –
45 | CC(=O)c1c(C)[nH]c(C(=O)OCC(=O)NCCC(C)C)c1C | inconclusive: 14.6 µM [cytotoxic, single point] | –
46 | Cc1ccc(C)c(N2CCN(C(=O)c3ccc(CS(=O)(=O)c4ccc(Br)cc4)o3)CC2)c1 | inconclusive: 23.1 µM [cytotoxic, single point] | –
47 | CCOC(=O)C1=C(c2ccccc2)NC(=O)NC1c1ccc(O)c(OCC)c1 (configuration not stated) | inconclusive: 0.164 µM [rising, full curve] | –
